Experimental data reported in patent US9901617B2, “Cell permeable inhibitors of the scaffold protein plenty of SH3 domains (POSH) or Sh3Rfl” (The Curators of the University of Missouri, priority 2013, dated 2018).
At least one peptide structure holds a part that was inferred or is arguable (an end, a ring closure or a residue). No end group written: not given here.

Key:
JNK2 = test: JNK phosphorylation in stimulated OT-I T cells (immunoblot or flow cytometry), JNK2; assay type: cell-based; settings: PMA/ionomycin or OVA-Tet/α-CD28
c-JUN = c-JUN phosphorylation in stimulated OT-I T cells; assay type: cell-based
NF-κB = test: RelA (p65) nuclear translocation by confocal microscopy in OT-I T cells; assay type: cell-based; settings: OVA-Tet 30 minutes
[1] = tested on: CD3, ZAP-70, LAT, ERK and p38 MAPK; test: Tat-POSH inhibitor specificity controls (immunoblot of phospho-proteins); assay type: cell-based; settings: T cells stimulated with OVA-Tet/αCD28
CD8+ T cells = test: CD8+ T-cell proliferation, cell cycle and apoptosis; assay type: cell-based
OT-I T cells = test: Effector molecule expression of OT-I T cells after re-stimulation (intracellular staining); assay type: cell-based
[2] = tested on: OVAp expressing thymoma (EG7); test: Tumor clearance in vivo by transferred Tat-POSH treated CTL; parameters: species or system mice
T-bet = test: Transcription factor expression in OT-I T cells, T-bet; assay type: cell-based
Eomes = test: Transcription factor expression in OT-I T cells, Eomes; assay type: cell-based; settings: 24 and 48 hours
[3] = tested on: B-CLL and B-ALL cell lines; test: B cell leukemia cell lines cultured with peptide (Ki-67, cleaved caspase 3, FSC/SSC survival); assay type: cell-based, human
[4] = tested on: normal primary mouse B cells; test: Normal primary B cells in culture with peptide; assay type: cell-based
[5] = tested on: T cell leukemia line Mkat; test: T cell leukemia line division, survival and apoptosis; assay type: cell-based
JNK and or AKT = test: Active JNK and AKT immunoblot in leukemia/lymphoma cells; assay type: cell-based; settings: B-CLL and T cell large granular lymphoma, 24 hours
[6] = tested on: triple negative breast cancer (TNBC) cell line; test: Triple negative breast cancer cell line treatment; assay type: cell-based, human
[7] = tested on: lung cancer cell line known to be dependent on JNK1; test: Lung cancer cell line treatment; assay type: cell-based
mouse melanoma cell line = test: Melanoma cell line death by flow cytometry; assay type: cell-based; settings: 48 hours in vitro
HIV = test: Viral release/infectivity of HIV infected cells; assay type: cell-based
leukemia cell lines = test: Viability of leukemia cell lines; assay type: cell-based, human and mouse
[8] = tested on: human breast cancer clinical isolate; test: Survival of breast cancer clinical isolate; assay type: cell-based
leukemic thymocytes = test: Killing of thymocytes, leukemic; assay type: cell-based
[9] = polyclonal CD8+ T cells, α-CD3/α-CD28, 24 and 48 hours
[10] = 4 days with peptide, re-stimulated with Brefeldin A
[11] = Tat-POSH versus control treated cells

Sequence: GRKKRRQRRRPPRKEDELELRKGEMFLVFER [Tat-POSH SH3.3]
- phosphorylation of JNK2 (JNK2): unaffected
- phosphorylation of the transcription factor c-JUN (c-JUN): significant reduction
- NF-κB nuclear translocation (NF-κB): did not affect
- phosphorylation of CD3 [1]: minimal effect
- phosphorylation of ERK [1]: minimal effect
- phosphorylation of LAT [1]: minimal effect
- phosphorylation of ZAP-70 [1]: minimal effect
- phosphorylation of p38 MAPK [1]: minimal effect
- induction of CD25 (CD8+ T cells; OT-I T cells, OVAp-pulsed APC): reduced induction
- number of divisions (CFSE dilution) (CD8+ T cells; naïve OT-I T cells, OVAp-pulsed APC): significant reduction
- percent of cells in cell cycle (Ki-67) (CD8+ T cells; [9]): significantly reduced
- percent of cells undergoing apoptosis (cleaved caspase-3, 7-AAD or Annexin-V) (CD8+ T cells; [9]): no statistical difference
- percentage of TNF-α+ cells (OT-I T cells; 4 days with peptide, re-stimulated): slight but significant reduction
- amount of IFN-γ produced on a per-cell basis (OT-I T cells; [10]): significant reduction
- percentage of IFN-γ+ cells (OT-I T cells; [10]): significant reduction
- INF-γ expression upon restimulation on day 4 (OT-I T cells; Tat-POSH added 48 hrs post stimulation): comparable to control treated cells
- INF-γ expression upon restimulation on day 4 (OT-I T cells; Tat-POSH continuous (t=0) or added 24 hrs post stimulation (t=24)): significant deficiencies
- level of Granzyme B (OT-I T cells; [11]): remained unchanged
- level of IL-2 (OT-I T cells; [11]): remained unchanged
- level of Perforin (OT-I T cells; [11]): remained unchanged
- effector function of CD8 T cells (OT-I T cells; in vitro and in vivo): significantly reduce
- IFN-γ producing cells among the most divided cells (OT-I T cells; per CFSE division peak): significantly fewer
- FasL induction (OT-I T cells; surface expression by flow cytometry): significantly decreased
- tumor size, Tat-POSH treated CTL versus no CTL control group ([2]; 1×10^6 CTL transferred into B6 Rag−/− hosts with EG7 tumor, tracked for 20 days): no difference
- cell number or percentage of CTL in the blood ([2]; Tat-POSH versus control treated CTL, over the first 9 days): no difference
- apoptosis of transferred cells in the blood, spleen or tumor ([2]; Tat-POSH versus control treated cells, data not shown): did not observe significant differences
- reduction in number of Tat-POSH treated CTL in the spleen ([2]; day 20): > 10 fold
- reduction in tumor-infiltrating lymphocytes (TIL) ([2]; day 20): > 10 fold
- T-bet expression (T-bet; 24 hours): markedly reduced
- T-bet expression (T-bet; 48 hours): recovered
- Eomes expression (Eomes): significantly impaired
- sensitivity of each cell line to treatment ([3]; 3 B-CLL and 4 B-ALL lines): sensitive
- Ki-67 (cell cycle progression) ([3]; all cell lines except B-CLL Mec-1 and B-ALL Nalm6): marked reduction
- cells left alive ([3]; at 48 hours): nearly no cells left alive
- survival by FSC/SSC ([3]; days 2 and 4): highly significant loss of survival
- cleaved caspase 3 expression ([3]; each cell line): subtle yet significant increase
- effect on normal B cells compared with leukemia lines [4]: opposite effect
- survival ([5]; 3e-6 M, 48 hours): highly significant loss of survival
- proliferation of leukemia cell lines ([5]; FIG. 19): blocks proliferation
- JNK and or AKT activation (JNK and or AKT): inhibition
- change in cell morphology [6]: rounded up
- death ([6]; data not shown): marked increase in death
- apoptosis [7]: remarkable increase in apoptosis
- killing of TPL-2 dependent lung cancer cell line [7]: kills
- susceptibility to treatment (death by flow cytometry) (mouse melanoma cell line): susceptible
- viral release (infectivity, viral titer) (HIV; HIV infected cells): modest reduction
- reduction of viral production (HIV; HIV infected cells in vitro): 40-50%
- killing of leukemia cell lines (leukemia cell lines; human and mouse): kill
- proliferation of other leukemia cell lines (leukemia cell lines; lines developed from a different ontological stage): stop proliferation
- effect on survival [8]: modest but significant effect
- killing of leukemic cells (leukemic thymocytes): effectively kills
